Laboratory results: PubChem BioAssay AID1259254 (NCATS, 2017)

- Test: 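Finding genes that stop cells copying their DNA twice in one cycle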 (primary screen)
- Cell system: human HCT116 colorectal cancer cells
- Reagent: single siRNA against human genes
- Duration: 3 days
- Measured: 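Nuclei stained with Hoechst and imaged; cell-cycle phase assigned by DNA content; G2 share scaled per plate, non-targeting siRNA 0%, GMNN siRNA 100%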
- Direction: G2 robust z-score: higher = more G2 cells, more excess DNA replication
- Hit rule: 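Active siRNAs have a G2 robust z of 5 or more median absolute deviations over the median, which in these data means about 38% or higher of GMNN control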
The whole screen tested about 59,000 reagents; this is a part drawn at random. In the full data, about 1,550 (2.6%) are marked active. 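G2 share is only a proxy for re-replication; each gene was hit by three separate siRNAs, and active genes were retested.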 The numbers tell different reagents against one gene apart. Not all columns of the deposit are shown. The record does not give: the amount of reagent.

G2 robust z-score, by gene and reagent
ZNF438: #1 0.279 inactive; #2 -0.633 inactive; #3 2.38 inactive
DPY19L2P2: #1 -0.0443 inactive; #2 0.553 inactive; #3 -0.449 inactive
MARCHF10: #1 0.0872 inactive; #2 0.391 inactive; #3 -0.0358 inactive
ZNF345: #1 -0.268 inactive; #2 -0.179 inactive; #3 1.73 inactive
ANKK1: #1 -0.0436 inactive; #2 -0.498 inactive; #3 2.55 inactive
DEPDC4: #1 1.4 inactive; #2 -1.02 inactive; #3 0.386 inactive
KCTD4: #1 -0.423 inactive; #2 0.95 inactive; #3 0.669 inactive
GPR157: #1 1.52 inactive; #2 2.09 inactive; #3 -0.808 inactive
DYNLL1P7: #1 5.02 active; #2 1.1 inactive; #3 -0.706 inactive

A stretch taken from the entries so far, for reference:
G2 robust z-score, by gene and reagent
ANKK1: #1 -0.0436 inactive; #2 -0.498 inactive; #3 2.55 inactive

The listing continues.
G2 robust z-score, by gene and reagent
DCLK1: #1 -1.13 inactive; #2 -0.659 inactive; #3 -0.278 inactive
YWHAH: #1 -0.129 inactive; #2 1.71 inactive; #3 -0.0751 inactive
LCN15: #1 2.4 inactive; #2 0.198 inactive; #3 -1.05 inactive
MYBPHL: #1 -0.244 inactive; #2 -0.06 inactive; #3 -0.706 inactive
FBXO17: #1 0.0677 inactive; #2 0.658 inactive; #3 0.457 inactive
TULP2: #1 0.27 inactive; #2 0.0724 inactive; #3 -0.417 inactive
ZNF189: #1 0.0333 inactive; #2 0.419 inactive; #3 -0.142 inactive
MTRF1: #1 -0.479 inactive; #2 -0.972 inactive; #3 -0.523 inactive
U2SURP: #1 3.15 inactive; #2 0.0094 inactive; #3 0.298 inactive
CAPN1: #1 -0.478 inactive; #2 0.594 inactive; #3 -0.168 inactive
SEL1L2: #1 -0.187 inactive; #2 1 inactive; #3 -0.416 inactive
SHARPIN: #1 -0.922 inactive; #2 1.25 inactive; #3 -1.04 inactive
CHTOP: #1 3.68 inactive; #2 -0.202 inactive; #3 -0.219 inactive
SUSD2P1: #1 -0.767 inactive; #2 0.962 inactive; #3 -0.598 inactive
